Experimental data published in patent US20060188956A1, “Relaxin3-gpcr135 complexes and their production and use” (priority 2003, published 2006).
No constants are given. Whether binding was seen depends on the method and setting. Some results given as binding are weak or reduced against the parent protein; the word gives no strength.

Experiments:
[1] = biological target: T1, rat GPCR135 long form (rat); test: radio-ligand binding assay on recombinantly expressed receptor
T1 sequence: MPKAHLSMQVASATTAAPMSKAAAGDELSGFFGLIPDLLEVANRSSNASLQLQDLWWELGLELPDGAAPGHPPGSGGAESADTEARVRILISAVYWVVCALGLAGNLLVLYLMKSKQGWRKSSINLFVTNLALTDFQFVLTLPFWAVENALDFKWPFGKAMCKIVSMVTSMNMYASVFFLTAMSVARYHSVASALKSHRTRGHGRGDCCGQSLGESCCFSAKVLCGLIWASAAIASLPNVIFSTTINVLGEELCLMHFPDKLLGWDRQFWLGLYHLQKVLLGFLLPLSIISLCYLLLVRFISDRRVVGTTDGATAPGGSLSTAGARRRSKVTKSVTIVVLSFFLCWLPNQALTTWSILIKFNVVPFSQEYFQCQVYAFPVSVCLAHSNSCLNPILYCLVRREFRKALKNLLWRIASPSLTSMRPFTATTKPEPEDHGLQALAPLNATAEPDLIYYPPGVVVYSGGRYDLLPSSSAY

[2] = biological target: T2, rat GPCR135 short form (rat); test: as above
T2 sequence: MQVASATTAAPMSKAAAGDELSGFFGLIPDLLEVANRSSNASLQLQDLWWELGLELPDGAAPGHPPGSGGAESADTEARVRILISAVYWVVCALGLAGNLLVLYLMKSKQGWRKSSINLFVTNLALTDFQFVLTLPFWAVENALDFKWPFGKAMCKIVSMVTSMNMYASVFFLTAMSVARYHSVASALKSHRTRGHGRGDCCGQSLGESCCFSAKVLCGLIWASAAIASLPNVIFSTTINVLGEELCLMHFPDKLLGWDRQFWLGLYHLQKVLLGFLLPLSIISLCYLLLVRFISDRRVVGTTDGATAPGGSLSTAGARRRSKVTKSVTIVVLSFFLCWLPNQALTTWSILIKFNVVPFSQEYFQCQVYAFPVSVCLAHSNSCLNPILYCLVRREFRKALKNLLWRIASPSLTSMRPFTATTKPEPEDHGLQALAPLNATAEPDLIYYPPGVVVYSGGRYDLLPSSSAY

mouse GPCR135 (mouse) [3] = biological target: T3, mouse GPCR135 (mouse) (UniProt Q8BGE9); test: radioligand binding on transfected COS-7 cells, room temperature 1 h, gamma counting
T3 sequence: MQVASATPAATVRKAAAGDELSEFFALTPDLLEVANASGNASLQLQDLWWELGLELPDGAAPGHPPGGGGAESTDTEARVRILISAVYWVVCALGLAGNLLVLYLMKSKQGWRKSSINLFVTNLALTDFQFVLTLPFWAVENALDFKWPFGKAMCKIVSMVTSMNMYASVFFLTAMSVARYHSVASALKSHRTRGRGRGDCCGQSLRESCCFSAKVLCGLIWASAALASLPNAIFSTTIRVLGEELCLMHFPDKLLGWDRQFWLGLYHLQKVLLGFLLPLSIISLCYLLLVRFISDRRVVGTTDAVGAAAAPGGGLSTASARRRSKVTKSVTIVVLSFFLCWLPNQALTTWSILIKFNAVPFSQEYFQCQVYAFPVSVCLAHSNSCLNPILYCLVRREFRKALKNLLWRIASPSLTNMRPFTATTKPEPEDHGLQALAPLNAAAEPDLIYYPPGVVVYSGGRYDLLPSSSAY

[4] = biological target: T1, rat GPCR135 long form (rat); test: as above
[5] = biological target: T2, rat GPCR135 short form (rat); test: as above
mouse GPCR135 (mouse) [6] = biological target: T3, mouse GPCR135 (mouse); test: radioligand binding on transfected COS7 cells, with or without 1 uM unlabeled human relaxin3
[7] = biological target: T1, rat GPCR135 long form (rat); test: as above
[8] = biological target: T2, rat GPCR135 short form (rat); test: as above

binding [1]: binds | binding [2]: binds | binding (mouse GPCR135 (mouse) [3]): binds | binding [4]: binds | binding [5]: binds | binding (mouse GPCR135 (mouse) [6]): binds | binding [7]: binds | binding [8]: binds
B1: 125I-labeled human relaxin3 (ligand)
chain 1: RAAPYGVRLCGREFIRAVIFTCGGSRW
chain 2: DVLAGLSSSCCKWGCSKSEISSLC
modifications: 125I label; labelled chain and residue not stated
